Reference: paper PMC5155141

By UniProt entry, the sequences of proteins in these tests, tags left out. Where a name states a change or a piece, a line headed by the entry shows the natural chain unless it says otherwise.
UniProt Q96P20: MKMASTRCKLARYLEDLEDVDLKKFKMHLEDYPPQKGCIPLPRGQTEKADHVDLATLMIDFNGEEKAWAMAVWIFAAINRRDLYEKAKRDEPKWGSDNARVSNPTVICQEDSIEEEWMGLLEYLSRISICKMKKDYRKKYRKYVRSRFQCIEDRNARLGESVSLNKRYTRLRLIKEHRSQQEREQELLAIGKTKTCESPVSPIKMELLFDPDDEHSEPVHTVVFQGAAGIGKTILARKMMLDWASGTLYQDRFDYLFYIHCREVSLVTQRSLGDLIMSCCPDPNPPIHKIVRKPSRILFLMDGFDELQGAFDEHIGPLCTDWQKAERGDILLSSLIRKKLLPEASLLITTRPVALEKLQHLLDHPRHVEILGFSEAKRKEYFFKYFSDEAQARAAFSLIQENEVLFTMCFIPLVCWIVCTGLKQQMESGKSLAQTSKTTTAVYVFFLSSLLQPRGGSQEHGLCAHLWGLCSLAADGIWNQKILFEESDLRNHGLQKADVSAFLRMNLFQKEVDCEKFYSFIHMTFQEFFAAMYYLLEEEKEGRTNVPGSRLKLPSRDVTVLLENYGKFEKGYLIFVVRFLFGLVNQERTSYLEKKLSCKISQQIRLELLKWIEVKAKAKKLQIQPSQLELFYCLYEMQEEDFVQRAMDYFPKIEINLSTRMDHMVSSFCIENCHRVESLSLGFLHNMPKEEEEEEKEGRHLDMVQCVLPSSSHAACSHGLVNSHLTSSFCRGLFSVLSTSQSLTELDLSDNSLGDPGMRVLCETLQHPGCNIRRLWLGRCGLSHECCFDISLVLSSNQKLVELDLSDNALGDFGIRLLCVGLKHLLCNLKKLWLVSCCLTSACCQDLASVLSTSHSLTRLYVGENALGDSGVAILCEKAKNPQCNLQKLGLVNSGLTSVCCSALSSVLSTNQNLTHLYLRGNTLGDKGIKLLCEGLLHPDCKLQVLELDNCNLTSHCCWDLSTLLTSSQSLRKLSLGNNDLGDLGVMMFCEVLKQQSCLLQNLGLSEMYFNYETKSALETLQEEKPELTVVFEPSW

Molecular target: T1, Flag-TRIM31 (human) (UniProt Q9BZY9)
T1 sequence: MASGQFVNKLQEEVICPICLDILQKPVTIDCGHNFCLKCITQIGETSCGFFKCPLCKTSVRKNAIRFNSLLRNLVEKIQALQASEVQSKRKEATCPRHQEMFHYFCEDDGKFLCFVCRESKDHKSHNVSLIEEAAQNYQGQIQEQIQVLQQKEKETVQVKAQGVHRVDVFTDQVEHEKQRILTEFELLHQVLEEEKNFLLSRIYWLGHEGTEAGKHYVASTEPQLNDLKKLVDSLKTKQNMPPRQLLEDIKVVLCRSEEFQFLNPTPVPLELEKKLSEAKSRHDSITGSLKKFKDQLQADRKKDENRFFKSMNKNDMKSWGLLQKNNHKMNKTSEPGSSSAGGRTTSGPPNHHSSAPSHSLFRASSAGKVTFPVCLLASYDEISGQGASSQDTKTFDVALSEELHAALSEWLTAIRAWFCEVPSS
Test: co-IP; HEK293T cells transfected with Flag-TRIM31 (or its mutants) and Myc-tagged partners (or NLRP3 mutants); lysates immunoprecipitated with anti-Flag antibody (Fig. 3f,h) and immunoblotted; IP buffer 1.0% Nonidet P 40, 50 mM Tris-HCl pH 7.4, 50 mM EDTA, 150 mM NaCl

binding	Substance
binds	Myc-NLRP3 ΔNACHT (from UniProt Q96P20)
no binding	Myc-NLRP3 ΔPYD (domain or fragment)
binds	Myc-NLRP3 ΔLRR (domain or fragment)

Results are given in words; binding and its absence hold for the method and conditions named. In cells and extracts the contact can be indirect. A result given as binding can be weak or reduced; the word gives no strength. Tags and fused reporters may be left off the sequences shown.
